Laboratory results as given in patent US20250144227A1, “C-16 MODIFIED TRIOXACARCINS, ANTIBODY DRUG CONJUGATES, AND USES THEREOF” (President and Fellows of Harvard College, priority 2021, published 2025).
At least one compound was matched to its structure with a doubt left. Some of these results come from one statement about several compounds together.

How the values were obtained:
[1] = Drug-linker stability assay (LC-MS); type: physicochemical; details: physiologically relevant pH and temperature (37 C)
Experimental: Stability Assay: In a 1.5 mL screw-top conical plastic vial, 42 (FIG. 1A) or 39 (FIG. 1B) was dissolved in 270 μL of DMSO (5 mM). 12 μL of this DMSO drug-linker solution was mixed with 576 μL pH 5.0 sodium acetate buffer (50 mM sodium acetate, 100 mM NaCl, 4 mM EDTA). 1-naphthalene acetic acid in DMSO (12 μL, 5 mM, 1 equiv.) was added as an internal standard. The vial was then placed in a heating block at 37 C and protected from direct light. 25 μL aliquots of the reaction mixture were removed at 0 h, 4 h, 24 h, 48 h, 72 h, and 1 week and analyzed by LC-MS. LC-MS peaks were integrated using Agilent OpenLab ChemStation and the areas of each peak were normalized to 1-napthalene acetic acid at 280 nM. Percent drug-linker remaining is defined as the normalized peak area at a given time point divided by the normalized peak area at 0 hours x 100%. Each assay was also performed at pH 7.4 (phosphate-buffered solution, Corning), and assays at each pH value were performed with and without the addition of 8 mM N-acetylcysteine.

glucuronidase = experiment: Drug-linker release assay with glucuronidase (LC-MS); type: in vitro ADME; details: glucuronidase added, 37 C

SMILES	Time for which drug-linker system was stable [1]	Half-life of liberation of the C16 primary amine warhead (glucuronidase)
COc1c2c(c(O)c3c4c(c(C)cc13)[C@H]1O[C@]3(CNC(=O)OCc5ccc(NC(=O)[C@H](C)NC(=O)[C@@H](NC(=O)CCOCCOCCOCCOCCN6C(=O)C=CC6=O)C(C)C)cc5)O[C@@H]1C(OC)(O4)[C@@]31CO1)C(=O)CCC2 (stereo partly drawn) [compound 42, 4-((17S,20S)-1-(2,5-dioxo-2,5-dihydro-1H-pyrrol-1-yl)-17-isopropyl-20-methyl-15,18-dioxo-3,6,9,12-tetraoxa-16,19-diazahenicosan-21-amido)benzyl (((2R,2′R,3a'S,4′R)-12′-hydroxy-7′,13a′-dimethoxy-5′-methyl-11′-oxo-3a′,8′,9′,10′, 11′, 13a′-hexahydro-2′H,4′H-spiro [oxirane-2,1′-[2,4]epoxyfuro[3,2-b]naphtho[2,3-h]chromen]-2′-yl)methyl)carbamate]	over 1 week	
COc1c2c(c(O)c3c4c(c(C)cc13)[C@@H]1O[C@]3(CNC(=O)OCc5ccc(O[C@@H]6O[C@H](C(=O)O)[C@@H](O)[C@H](O)[C@H]6O)c(-n6cc(COCCOCCOCCOCCN7C(=O)C=CC7=O)nn6)c5)O[C@H]1[C@@](OC)(O4)[C@@]31CO1)C(=O)CCC2 [compound 39, (2S,3S,4S,5R,6S)-6-(2-(4-(13-(2,5-Dioxo-2,5-dihydro-1H-pyrrol-1-yl)-2,5,8,11-tetraoxatridecyl)-1H-1,2,3-triazol-1-yl)-4-((((((2R,2′R,3a′R,4'S,13a′R)-12′-hydroxy-7′,13a′-dimethoxy-5′-methyl-11′-oxo-3a′,8′,9′,10′,11′,13a′-hexahydro-2′H, 4′H-spiro [oxirane-2,1′-[2.4]epoxyfuro[3,2-b]naphtho[2,3-h]chromen]-2′-yl)methyl)carbamoyl)oxy)methyl)phenoxy)-3,4,5-trihydroxytetrahydro-2H-pyran-2-carboxylic acid]	over 1 week	approximately 15 minutes
